Data as given in patent US20220259645.

By UniProt entry, the sequences of proteins in these tests, tags left out. Where a name states a change or a piece, a line headed by the entry shows the natural chain unless it says otherwise.
UniProt P00573: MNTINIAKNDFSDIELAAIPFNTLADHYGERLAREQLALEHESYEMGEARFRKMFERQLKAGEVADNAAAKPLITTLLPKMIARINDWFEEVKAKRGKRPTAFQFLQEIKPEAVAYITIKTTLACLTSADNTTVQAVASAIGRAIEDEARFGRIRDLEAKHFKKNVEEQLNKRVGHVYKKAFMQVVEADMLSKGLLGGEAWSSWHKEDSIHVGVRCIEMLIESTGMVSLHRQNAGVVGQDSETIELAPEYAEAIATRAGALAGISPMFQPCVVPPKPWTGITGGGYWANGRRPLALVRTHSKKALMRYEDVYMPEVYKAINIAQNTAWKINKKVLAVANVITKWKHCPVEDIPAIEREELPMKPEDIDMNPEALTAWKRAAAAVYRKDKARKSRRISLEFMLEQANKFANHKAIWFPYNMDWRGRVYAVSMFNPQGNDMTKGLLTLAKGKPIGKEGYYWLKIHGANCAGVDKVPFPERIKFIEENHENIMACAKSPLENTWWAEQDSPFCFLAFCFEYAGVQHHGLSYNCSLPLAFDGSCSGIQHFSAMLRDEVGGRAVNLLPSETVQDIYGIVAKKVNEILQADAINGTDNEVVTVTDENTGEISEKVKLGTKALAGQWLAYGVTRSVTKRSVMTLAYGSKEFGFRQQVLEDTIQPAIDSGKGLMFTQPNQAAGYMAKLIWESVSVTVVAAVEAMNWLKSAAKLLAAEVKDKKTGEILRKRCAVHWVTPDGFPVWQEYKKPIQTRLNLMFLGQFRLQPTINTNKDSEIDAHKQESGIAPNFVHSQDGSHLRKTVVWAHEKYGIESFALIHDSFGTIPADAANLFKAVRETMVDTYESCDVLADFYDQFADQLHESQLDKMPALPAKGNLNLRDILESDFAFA

Target: T7 RNA polymerase (T7 RNAP) (bacteriophage T7) (UniProt P00573)
Assay: activity assay
Details: purified recombinant protein
[1] = templated propagation at low T7 RNAP

Sequence | activity on this sequence [1] | activity on this sequence (failed to instruct efficient RNA synthesis without 3' extra base)
CCCAAUAUCAUCAAUUGCUGACGAAGAUGAUAUUGAUAAUAUCAUCUUCGUCAGCAAUUGAUGAUAUU [Round 2B RNA species] | active | 
CCCCAAAAUUUCAAGAUCAGGGCUUGAAAUUUUGUAAAAUUUCAAGCCCUGAUCUUGAAAUUUUCC [Y2 RNA C strand (RNA species 12.1)] |  | less active
GGAAAAUCAAUGACUGGUCAAUCUCAUUGAUUUUUGAAAUCAAUGAGAUUGACCAGUCAUUGAUUUU [Round 2C RNA species] | active | 
GGAAAAUUUCAAACAUUAUGUUGUAAUUUGUUUGAAAAUUUCAAACAAAUUACAACAUAAUGUUUGAAAUUUUGGGGGGAAAAU [Round 2A RNA species] | active | 

A weaker result is weaker than the reference pair of the same experiment.
